Source: patent US20250032627A1, “T[…] BASED UPON DRUG CONJUGATES” (priority 2023, published 2025)
At least one peptide structure holds a part that was inferred or is arguable (an end, a ring closure or a residue).

Columns and labels:
[1] = Self-assembly into nanostructure in PBS or water; assay type: physicochemical; conditions: in either PBS or water
[2] = Hydrogel formation and swelling after crosslinking CPT-K3 with multi-arm PEG-NHS ester; assay type: physicochemical

## CC[C@@]1(OC(=O)CCC(=O)N[C@@H](CCCCN)C(=O)N[C@@H](CCCCN)C(=O)N[C@@H](CCCCN)C(=O)O)C(=O)OCc2c1cc1n(c2=O)Cc2cc3ccccc3nc2-1 [CPT-K3]
[1]
  assembly into a nanostructure: did not assemble into a nanostructure
[2]; 1:1 stoichiometry
  hydrogel formation after crosslinking: forms a hydrogel
[2]; 1.0 to 1.2 CPT-K3 equivalent
  average swelling rate: 120%
